Values of other authors as cited in patent US6835722B1, “Pharmaceutical compositions and preparations for treatment of metabolic bone disease” (Yuyu Industrial Co., Ltd., priority 1999, dated 2004).

Test system: post-menopausal women
Conditions: cited from earlier work

Question: For `NCCCC(O)(P(=O)(O)O)P(=O)(O)O` [alendronate, 4-amino-hydroxybutylidine-1,1-bisphosphonate], which “increase of mineral density of bones of lower limbs” value (10 mg/day for 3 years) is on record?
Answer: 7.2%

Question: And the “increase of mineral density of spinal bone” value (10 mg/day for 3 years)?
Answer: 8.2%

Question: And the “increase in bone density” value (clinical studies)?
Answer: 2-3%
